# Laboratory results: PubChem BioAssay AID493246 (Drosophila RNAi Screening Center, 2011)
# Purpose: 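Genome-wide search for dsRNAs that reduce cell number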 (primary screen)
# Cell system: Drosophila Kc and S2R+ cells
# Reagents: long dsRNA against Drosophila genes
# Read-out: 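Cell number per well after knock-down, printed as raw plate values; calls were based on per-plate z-scores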
# Scale: Kc cell number and S2R+ cell number: higher = more cells remaining
# Rule for the call: 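Active when the per-plate z-score of cell number is 3 or more in the direction of fewer cells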
# The screen tested about 21,000 reagents; this is a random part of those with a known target gene and a result. In the full data, 429 (2%) are marked active. 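Values are raw and not normalised between plates; calls rest on per-plate z-scores that were not deposited.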 A number with no mark means an inactive call. A plus sign joins genes that one reagent is predicted to hit. No sequences are given here. Not given: the amount of reagent, the time to read-out.
Target gene,DRSC id,"Kc cell number, rep 1","Kc cell number, rep 2","S2R+ cell number, rep 1","S2R+ cell number, rep 2"
CG1360,DRSC06406,1.52e6,1.57e6,1.32e6,1.39e6
boi,DRSC18425,1.51e6,1.46e6,1.03e6,1.13e6
boi,DRSC18598,1.52e6,1.48e6,9.63e5,1.14e6
dyw,DRSC18228,1.42e6,1.51e6,9.44e5,1.15e6
CG13217,DRSC06339,1.70e6,1.69e6,1.37e6,1.48e6
Cont,DRSC12149,1.67e6,1.69e6,1.34e6,1.42e6
Vmat + CG13330,DRSC06365,1.44e6,1.53e6,1.11e6,1.14e6
Dhc36C,DRSC03315,1.52e6,1.57e6,1.23e6,1.39e6
Cyp4e2,DRSC07371,1.29e6,1.39e6,1.16e6,1.22e6
CCT3,DRSC16602,1.48e6,1.59e6,1.09e6,1.19e6
CG32212 + hpRNA:CR33940,DRSC09618,1.35e6,1.45e6,1.10e6,1.34e6
CG16854,DRSC02536,1.54e6,1.61e6,1.22e6,1.30e6
nwk,DRSC10442,1.71e6,1.60e6,1.22e6,1.16e6
lncRNA:CR42862 + CG33229,DRSC08497,1.53e6,1.67e6,1.15e6,1.22e6
CG2685,DRSC18463,1.31e6,1.38e6,7.04e5,8.23e5
Bsg,DRSC01010,1.37e6,1.39e6,8.75e5,1.01e6
Bsg,DRSC01011,1.59e6,1.67e6,9.49e5,1.06e6
Alg1,DRSC15297,1.51e6,1.59e6,1.22e6,1.26e6
CG13511,DRSC04153,1.62e6,1.67e6,1.37e6,1.34e6
CG7044,DRSC16180,1.33e6,1.35e6,1.15e6,1.24e6
Clp,DRSC00746,1.40e6,1.45e6,9.83e5,1.14e6
KrT95D,DRSC16725,1.46e6,1.50e6,1.15e6,1.19e6
CG42709,DRSC10277,1.44e6,1.48e6,1.36e6,1.32e6
CG7546,DRSC08885,1.47e6,1.54e6,1.16e6,1.33e6
CG7546,DRSC10871,1.24e6,1.32e6,1.00e6,1.14e6
CG13045,DRSC09926,1.59e6,1.73e6,1.33e6,1.38e6
CG14811,DRSC17962,1.51e6,1.42e6,9.98e5,1.12e6
RpS4,DRSC11272,8.46e5 (active),8.49e5,7.34e5,8.80e5
sds22,DRSC17052,1.24e6,1.27e6,1.18e6,1.23e6
CG7276,DRSC10797,1.52e6,1.56e6,1.38e6,1.42e6
CG32119,DRSC09248,1.33e6,1.70e6,1.01e6,1.16e6
Bx42,DRSC17743,3.59e5 (active),,4.39e5,
bru2,DRSC01246,1.57e6,1.74e6,1.09e6,1.23e6
bru2,DRSC01247,1.18e6,1.34e6,7.61e5,9.01e5
bru2,DRSC01249,1.52e6,1.67e6,1.06e6,1.17e6
bru2,DRSC01250,1.59e6,1.66e6,1.09e6,1.25e6
bru2,DRSC02557,1.03e6 (active),1.08e6,8.00e5,8.79e5
CG13843,DRSC14693,1.70e6,1.71e6,9.51e5,1.08e6
Sox100B,DRSC15090,1.36e6,1.43e6,8.40e5,9.14e5
Sox100B,DRSC16866,1.58e6,1.64e6,1.01e6,1.13e6
CG30345,DRSC05144,1.40e6,1.50e6,9.40e5,1.01e6
qm,DRSC11386,1.66e6,1.70e6,1.08e6,1.22e6
CG7024,DRSC18414,1.46e6,1.44e6,1.01e6,1.16e6
Ddx56,DRSC20567,1.49e6,1.45e6,9.24e5,1.04e6
CG42490 (retired record),DRSC01649,1.52e6,1.55e6,9.71e5,1.20e6
Jhbp3,DRSC12247,1.87e6,1.91e6,1.35e6,1.45e6
betaTub60D,DRSC04673,1.54e6,1.60e6,1.27e6,1.26e6
Vti1a,DRSC08563,1.23e6,1.37e6,9.23e5,1.03e6
CG34370,DRSC03913,5.71e5,,8.86e5,
CG34370,DRSC04142,1.50e6,1.60e6,1.36e6,3.91e5
CG34370,DRSC04143,1.51e6,1.65e6,1.35e6,4.00e5
CG34370,DRSC04144,1.47e6,1.61e6,1.30e6,4.28e5
CG3746,DRSC04412,1.58e6,1.60e6,1.27e6,1.34e6
CG12992,DRSC19512,1.49e6,1.47e6,1.06e6,1.13e6
CG34417,DRSC17467,1.26e6,1.54e6,1.07e6,1.22e6
CG34417,DRSC18332,1.53e6,1.42e6,1.02e6,1.10e6
CG34417,DRSC18333,6.03e5,,9.17e5,
CG6700,DRSC02980,1.30e6,1.38e6,1.14e6,1.16e6
Ubc10,DRSC07568,1.35e6,1.44e6,9.56e5,1.07e6

9 entries from above in another layout:
Target gene | DRSC id | Kc cell number, rep 1 | Kc cell number, rep 2 | S2R+ cell number, rep 1 | S2R+ cell number, rep 2
CG7546 | DRSC10871 | 1.24e6 | 1.32e6 | 1.00e6 | 1.14e6
CG13045 | DRSC09926 | 1.59e6 | 1.73e6 | 1.33e6 | 1.38e6
CG14811 | DRSC17962 | 1.51e6 | 1.42e6 | 9.98e5 | 1.12e6
RpS4 | DRSC11272 | 8.46e5 (active) | 8.49e5 | 7.34e5 | 8.80e5
sds22 | DRSC17052 | 1.24e6 | 1.27e6 | 1.18e6 | 1.23e6
CG7276 | DRSC10797 | 1.52e6 | 1.56e6 | 1.38e6 | 1.42e6
CG32119 | DRSC09248 | 1.33e6 | 1.70e6 | 1.01e6 | 1.16e6
Bx42 | DRSC17743 | 3.59e5 (active) | – | 4.39e5 | –
bru2 | DRSC01246 | 1.57e6 | 1.74e6 | 1.09e6 | 1.23e6
